# Measurements taken from PubChem BioAssay AID204 (DTP/NCI, 2004).
# The list is a part of this screen's results and no random one: it covers a few groups of compounds. Not every dose and run of a compound is shown. T/C is the treated group as % of the vehicle group. Where survival is the endpoint, this PubChem deposit counts one and a half times the control or more as active, and values a quarter to a half above the control carry no call in these data; other NCI protocols may use other cut-offs. Some T/C values are marked as having no survivor count here; that says nothing about deaths at the dose. Schedules are NCI's codes, read here as Q, the interval in days (D) or hours (H), X, the number of doses. Some entries hold several experiments; the results are listed from low to high.
# Test system: BDF1 mice, P288 methotrexate-resistant leukemia, survival T/C
# Test: NCI In Vivo Anticancer Drug Screen. Data for tumor model P288 Lymphocytic Leukemia resistant to methotrexate; NSC 740 (intraperitoneal) in B6D2F1 (BDF1) mice
# Conditions: T/C endpoint: median survival time, schedule: Q01DX010 (ip), vehicle: saline, higher T/C = longer survival
# Description: The antitumor activity of compounds was measured in mice bearing transplantable tumors. Survival or tumor size were measured and the results are expressed as the measurement made in the treated group (T) divided by the measurement made in the vehicle treated control group (C). The tumor model used in this assay is P288 Lymphocytic Leukemia resistant to methotrexate; NSC 740 (intraperitoneal) in B6D2F1 (BDF1) mice
compound,measurement,setting,value
CN(CCCl)CCCl,T/C,dose: 0.13 mg/kg/injection,105 [survivor count not shown] and 156 % of control [survivor count not shown]
same,T/C,dose: 0.25 mg/kg/injection,138 [survivor count not shown] and 156 % of control [survivor count not shown]
same,T/C,dose: 0.5 mg/kg/injection,156 [survivor count not shown] and 177 % of control [survivor count not shown]
same,T/C,dose: 1.0 mg/kg/injection,105 [survivor count not shown] and 112 % of control [survivor count not shown]
